Screen size: about 390,000 compounds; about 4,000 (1%) were called active. The shares of active, inactive and inconclusive entries below differ from those in the screen. The call rests on the fitted dose curve; in most records, active means well fitted inhibition curve with a large enough effect; inconclusive means small, poorly fitted or top-dose-only effect, or another doubt; inactive means no such curve, though single readings can be large or run the other way. Potencies of inconclusive entries are doubtful fits and often do not repeat.
The compounds below were run against DNA polymerase iota (Homo sapiens) (UniProt Q9UNA4) (assay: qHTS for Inhibitors of Polymerase Iota). Conditions: Pol iota fluorescent replication assay, 10 min; series mostly up to 115 µM; activity, negative = inhibition: at the top concentration.
Procedure, shortened: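 Fluorescent replication assay read twice, at 0 min and 10 min after adding 50 nM (final) substrate. Enzyme (10 nM) and compounds were first incubated 15 min at room temperature; enzyme-free buffer wells were negative controls.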
Potency means the concentration at half of the fitted maximal effect.

Protein sequences, listed by entry. Tags and fused reporters are not part of them. Lines headed by an entry give the natural chain unless they say otherwise; changes in a name come on top.
UniProt Q9UNA4: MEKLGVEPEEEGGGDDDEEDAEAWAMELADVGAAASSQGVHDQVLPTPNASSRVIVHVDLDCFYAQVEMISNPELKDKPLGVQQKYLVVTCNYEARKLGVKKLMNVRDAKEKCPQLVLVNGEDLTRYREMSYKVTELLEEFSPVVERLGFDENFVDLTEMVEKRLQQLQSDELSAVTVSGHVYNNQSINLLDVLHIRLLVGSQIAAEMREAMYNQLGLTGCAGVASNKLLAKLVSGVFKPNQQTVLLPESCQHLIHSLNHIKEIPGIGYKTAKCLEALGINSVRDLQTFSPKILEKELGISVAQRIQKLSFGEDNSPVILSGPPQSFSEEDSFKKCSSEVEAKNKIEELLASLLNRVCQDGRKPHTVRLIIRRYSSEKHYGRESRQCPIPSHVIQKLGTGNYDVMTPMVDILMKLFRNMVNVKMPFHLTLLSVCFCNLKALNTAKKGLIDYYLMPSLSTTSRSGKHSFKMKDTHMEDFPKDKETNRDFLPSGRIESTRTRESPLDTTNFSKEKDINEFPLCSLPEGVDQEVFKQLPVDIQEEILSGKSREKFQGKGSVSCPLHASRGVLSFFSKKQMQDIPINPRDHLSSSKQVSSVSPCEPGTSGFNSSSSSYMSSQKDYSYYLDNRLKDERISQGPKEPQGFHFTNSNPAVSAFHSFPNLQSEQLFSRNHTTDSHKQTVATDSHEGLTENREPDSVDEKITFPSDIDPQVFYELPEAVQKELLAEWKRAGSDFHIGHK

activity, negative = inhibition, inactive:
COc1ccc(CCNC(=O)C2CC(c3cccc(F)c3)=NO2)cc1 (stereo not given) 4.37%, O=C(Nc1cccc(/C=C/c2nc3ccccc3c(=O)[nH]2)c1)c1ccccc1Cl 0.609%, COC(=O)c1c(NC(=O)c2nc(SC)ncc2Cl)sc2c1CCCC2 12.3%, O=C(Cc1ccc(S(=O)(=O)N2CCOCC2)s1)Nc1cc(C(F)(F)F)cc(C(F)(F)F)c1 -3.89%, COc1cc(O)oc1C=Nc1ccc(C(=O)O)cc1 4.03%, COc1ccc(C(=O)Nc2cc(OC)cc3cccnc23)cc1 -23.6%, COc1ccccc1N1CCN(CCN2C(=O)C3CCCCN3C2=O)CC1 (stereo not given) 53.3%, O=c1[nH]c(-[n+]2ccccc2)c(/C=N/N=C(\[O-])c2ccccc2)s1 30.4%, Oc1ccccc1/C=N/Nc1nn[nH]n1 30.6%, Cc1ccsc1CCN1C(=O)N(c2ccc(F)cc2)C(=O)C1CC(=O)Nc1ccccc1 (stereo not given) 30.2%, COc1cc(-c2noc(C3CC(=O)N(c4cc(C)ccc4C)C3)n2)cc(OC)c1OC (stereo not given) -14.3%, Cc1cc(C)n(-c2nc(C)c(C)c(=O)n2CC(=O)Nc2ccc(Cl)c(Cl)c2)n1 11.5%, Cc1ccnc(SCC(=O)Nc2oc(-c3ccccc3)c(-c3ccccc3)c2C#N)n1 -8.35%, O=C(O)C1=C[C@@H](c2csc3ccccc23)C[C@@H](OCc2ccc(CO)cc2)O1 11%, COc1cccc(NC(=O)c2nnn(Cc3ccc(OC)c(Br)c3)c2N)c1 7.54%, COc1ccccc1NS(=O)(=O)c1cc(NC(=O)c2cc[n+]([O-])cc2)ccc1N1CCCC1 2.2%, CCc1nn2c(=O)cc(COC(=O)C3CCCCC3)nc2s1 3.39%, CCCCc1cc(-c2n[nH]c(=S)o2)c2ccccc2n1 124%, CCOC(=O)c1cc(-c2ccccc2)n(CCC(=O)Nc2nc3c(C)cccc3s2)c1C 26%

Potency, active:
Nc1c(N=Nc2ccc([N+](=O)[O-])cc2)c(S(=O)(=O)O)cc2cc(S(=O)(=O)O)c(/C=C/c3ccccc3)c(O)c12 25.1 µM, CCCc1cc(=O)[nH]c(SCC(=O)Nc2sccc2C#N)n1 17.8 µM, COc1ccc(CNC(=O)C2CCN(S(=O)(=O)c3ccc4nc5c(c(C(=O)O)c4c3)CC(C)CC5)CC2)cc1 (stereo not given) 89.1 µM

Potency, inconclusive:
CCN(c1ccccc1)c1nc(Cl)nc2c1cnn2C 89.1 µM [inhibitor, single point], COc1ccc2nc(NC(=O)CSc3nnnn3C3CCCCC3)sc2c1 25.1 µM [inhibitor, full curve, poor fit], CC(=O)c1cc(-c2ccccc2)n(CCC(=O)NCCc2ccccc2)c1C 89.1 µM [inhibitor, single point], CN(C)/C=N/c1cc(=O)[nH]c(=O)n1Cc1ccccc1 89.1 µM [inhibitor, single point], CCSc1nnc(NC(=O)c2cnccn2)s1 15.8 µM [inhibitor, full curve, poor fit], COc1cc(NC(=O)c2cc3ccccc3o2)c(OC)cc1Br 7.08 µM [inhibitor, full curve, poor fit], COc1ccc(-c2cc(-c3ccccc3)nc3c2COc2ccccc2-3)cc1 89.1 µM [inhibitor, single point], CCCn1cc(S(=O)(=O)c2cc(C)ccc2C)c(=O)c2cc(F)c(N3CCCCCC3)cc21 20 µM [inhibitor, full curve], Cc1ccc(NC(=O)[C@H](Cc2ccccc2)NC(=O)C2CCNCC2)cc1 31.6 µM [inhibitor, full curve, poor fit], CCN(c1ccccc1)S(=O)(=O)c1ccc2[nH]cc(C(=O)N3CCOCC3)c(=O)c2c1 10 µM [inhibitor, partial curve], Cc1nc2scc(-c3ccccc3)c2c(=O)n1N=C1C=CC(=O)C=C1 39.8 µM [inhibitor, single point], O=C(c1ccc(-c2ccc([N+](=O)[O-])cc2)o1)N1CCN(S(=O)(=O)c2cccs2)CC1 17.8 µM [inhibitor, partial curve, poor fit], CCc1ccc(NC(=O)C2CCCN(S(=O)(=O)c3cccc4nonc34)C2)cc1 (stereo not given) 100 µM [inhibitor, single point], CC(C)CC(CO)N1CCN(C(=O)c2cccc(Cl)c2)CCC1=O (stereo not given) 35.5 µM [inhibitor, partial curve, poor fit], COc1ccccc1-c1sc2cc3c(cc2c1-c1ccc2c(c1)OCO2)OCO3 25.1 µM [inhibitor, single point], N#Cc1c(Sc2ncc(C(F)(F)F)cc2Cl)nsc1C/C=N\OCc1c(F)cccc1Cl 14.1 µM [inhibitor, partial curve, poor fit], Cc1ccc(C(=O)CN(CCC(=O)O)S(=O)(=O)c2ccc([N+](=O)[O-])cc2)cc1 2.51 µM [inhibitor, partial curve, poor fit], COc1ccc(-c2cc(OC(=O)c3cccc(C)c3)c3c(C)oc(C)c3c(=O)c2)cc1 79.4 µM [inhibitor, partial curve], Cc1ccc(C2CC(=O)NC(SCc3ccccc3)=C2C#N)o1 (stereo not given) 20 µM [inhibitor, partial curve, poor fit], Brc1ccccc1-n1nnc(-c2cccnc2)n1 89.1 µM [inhibitor, single point], CC(C)c1ccc(O)c(NC(=O)c2cccnc2)c1 79.4 µM [inhibitor, partial curve, poor fit], C[C@H](NC(=O)c1nc[nH]c1C(=O)NCC(=O)OCc1ccccc1)c1ccccc1 79.4 µM [inhibitor, single point], COc1ccccc1C(c1nnnn1C(C)(C)C)N1CCN(Cc2ccccc2)CC1 (stereo not given) 10 µM [inhibitor, full curve, poor fit]

— PubChem BioAssay AID588590 (National Center for Advancing Translational Sciences (NCATS), 2011)
